According to paper PMC11751453:
Results are given in words; binding and its absence hold for the method and conditions named. Binding seen in cells or lysates may run through a third protein. Some results given as binding are weak or reduced against the parent protein; the word gives no strength.

Chains of the proteins cited; added tags and fusions are not shown. Residues count along the entry.
UniProt P48023, residues 130-281: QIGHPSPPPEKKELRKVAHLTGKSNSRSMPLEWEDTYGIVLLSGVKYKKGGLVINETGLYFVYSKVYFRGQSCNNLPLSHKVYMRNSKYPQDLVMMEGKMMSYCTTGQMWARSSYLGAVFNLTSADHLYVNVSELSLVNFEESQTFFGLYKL
UniProt P25445, residues 26-335: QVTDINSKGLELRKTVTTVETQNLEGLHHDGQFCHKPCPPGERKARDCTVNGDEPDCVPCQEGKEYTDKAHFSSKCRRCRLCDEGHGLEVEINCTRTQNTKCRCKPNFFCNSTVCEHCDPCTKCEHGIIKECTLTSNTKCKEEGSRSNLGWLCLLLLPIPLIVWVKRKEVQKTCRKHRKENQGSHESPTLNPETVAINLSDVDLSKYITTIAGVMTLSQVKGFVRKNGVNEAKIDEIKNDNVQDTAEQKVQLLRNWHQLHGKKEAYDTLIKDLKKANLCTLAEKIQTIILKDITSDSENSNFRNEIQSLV

Molecular target: Fc-Flag-CD95L (UniProt P48023)
Assay: co-IP; purified Fc-CD95L (1 µg/ml, 90 min) added to HCT116-PIK3CAmut cell variants, unbound ligand washed off, cells lysed, Fc-CD95L with the receptor complex collected on protein G agarose; only the target purified

## CD95 (Apo1/Fas) (from UniProt P25445 26-335) (receptor)
  binding: binds
